Results as given in patent US20160318982A1.
Results are given in words; binding and its absence hold for the method and conditions named. Some entries that bind do so weakly or less than the wild type. Tags and fused reporters may be left off the sequences shown.

Columns and labels:
[1] = target: T1, Biotin-G-G-His×6 biotinylated peptide conjugate; test: native PAGE band shift, drop-wise mixing
T1 sequence (peptide, N-terminus biotinylated): GGHHHHHH

[2] = target: T1, Biotin-G-G-His×6 biotinylated peptide conjugate; test: native PAGE band shift, streptavidin mixed with a dilution series of the peptide
[3] = target: T2, His×6-G×4-Biotin biotinylated peptide conjugate; test: as above
T2 sequence (peptide, C-terminus biotinylated): HHHHHHGGGG

[4] = target: T1, Biotin-G-G-His×6 biotinylated peptide conjugate; test: native PAGE band shift, one-step mixing (6 mL of 10 µM peptide with 0.8 mL of 20 µM streptavidin)

binding [1]: binds
binding [2]: binds
binding [3]: binds
binding [4]: binds
Substance: streptavidin (salt-free, Sigma 85878) (from UniProt P22629 37-163)
